# Measurements from PubChem BioAssay AID540275 (National Center for Advancing Translational Sciences (NCATS), 2011).
# Chains of the proteins cited; added tags and fusions are not shown.
# UniProt Q8NER1, whole entry, looked up: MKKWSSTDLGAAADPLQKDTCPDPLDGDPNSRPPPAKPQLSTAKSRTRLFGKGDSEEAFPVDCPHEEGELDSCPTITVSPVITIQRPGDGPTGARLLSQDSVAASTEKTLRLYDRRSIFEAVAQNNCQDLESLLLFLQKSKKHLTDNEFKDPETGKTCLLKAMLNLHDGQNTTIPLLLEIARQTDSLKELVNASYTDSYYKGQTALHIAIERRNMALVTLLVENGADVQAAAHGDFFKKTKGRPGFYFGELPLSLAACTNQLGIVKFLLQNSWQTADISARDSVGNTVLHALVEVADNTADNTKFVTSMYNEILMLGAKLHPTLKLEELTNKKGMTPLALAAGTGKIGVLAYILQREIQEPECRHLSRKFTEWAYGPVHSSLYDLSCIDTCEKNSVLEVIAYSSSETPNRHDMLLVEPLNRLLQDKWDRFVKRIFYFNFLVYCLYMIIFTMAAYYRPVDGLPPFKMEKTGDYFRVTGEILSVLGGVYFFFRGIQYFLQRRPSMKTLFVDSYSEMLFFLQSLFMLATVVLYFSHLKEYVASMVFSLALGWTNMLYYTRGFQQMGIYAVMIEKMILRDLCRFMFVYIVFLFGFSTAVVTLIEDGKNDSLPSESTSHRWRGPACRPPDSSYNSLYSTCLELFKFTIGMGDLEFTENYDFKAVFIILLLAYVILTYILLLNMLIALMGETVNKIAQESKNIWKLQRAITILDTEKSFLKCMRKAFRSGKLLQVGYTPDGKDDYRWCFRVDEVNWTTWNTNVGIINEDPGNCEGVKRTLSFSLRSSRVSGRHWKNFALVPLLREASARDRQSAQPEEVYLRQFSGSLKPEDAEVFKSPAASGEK
# Screen size: about 320,000 compounds; about 620 (0.19%) were called active. The shares of active, inactive and inconclusive entries below differ from those in the screen. Cut-off read from the data, not from the text of the source: active = activation above about 80%; inconclusive = between about 30% and that limit; inactive = weaker than that.
# Molecular target: Transient receptor potential cation channel subfamily V member 1 (Homo sapiens) (UniProt Q8NER1)
# Experiment: HTS Assay for Compounds that Act as Agonists of the Vanilloid Receptor 1; note: 0% is about no effect
# Conditions: TRPV1-expressing cells, Fluo-8 calcium influx, agonist mode; at 8.33 µM, hits give high values
# How it was run: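 Cells expressing TRPV1 were dye-loaded with Fluo-8 and read kinetically: 10 s baseline, 3 min after compound (agonist portion), then 2 min after EC20 capsaicin (allosteric enhancer portion). Calcium-bound dye fluorescence at 480/520 nm.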
row,SMILES,activation
1,O=C(Nc1nc2cc3c(cc2s1)OCCO3)c1cccs1,inconclusive: 51.2%
2,O=C(Nc1c2c(nn1-c1ccccc1)CS(=O)(=O)C2)c1cccs1,inactive: 1.18%
3,CC(C)c1ccc(/C=C/C(=O)Nc2nncs2)cc1,inconclusive: 59.8%
4,CCc1nc2ccccc2c2nc3ccccc3n12,inconclusive: 58.1%
5,CC(C)(C)c1csc(NC(=O)Cc2ccc(S(=O)(=O)N3CCOCC3)s2)n1,inconclusive: 39.3%
6,Cc1ccc2[nH]c(=O)c(CN(Cc3cccs3)S(=O)(=O)c3ccc4c(c3)OCCO4)cc2c1,inactive: 0.365%
7,COc1ccc(OC)c(/C=C/C(=O)NCCc2nc3ccccc3[nH]2)c1,inconclusive: 68.1%
8,Oc1ccccc1/C=N/N1CCN(c2ccccn2)CC1,inconclusive: 39.6%
9,Cc1ccc(C(=O)Nc2oc(-c3ccccc3)cc2C#N)cc1,inconclusive: 58.8%
10,CN(C)C(CNc1ccc([N+](=O)[O-])cc1C#N)c1ccccc1 (stereo not given),inactive: 1.91%
11,C[C@@H]1CC[C@]2(C(=O)O)CC[C@]3(C)C(=CCC4[C@]56CC[C@@](O)(OC5)C(C)(C)C6CC[C@]43C)C2[C@H]1C (stereo not given in full),inconclusive: 30.1%
12,Cc1c(C(=O)N2CCOCC2)oc2ccc(S(=O)(=O)N3CCCCCC3)cc12,inconclusive: 52.1%
13,Cc1ccc(S(=O)(=O)NCC(=O)OCC(=O)Nc2cccc(S(=O)(=O)NC3=NCCCCC3)c2)cc1,inactive: 1.01%
14,O=S(=O)(NCC1(N2CCOCC2)CCCCC1)c1ccc(Cl)cc1C(F)(F)F,inactive: 15.1%
15,CC(NC(=O)Nc1cccc([N+](=O)[O-])c1)c1ccc2c(c1)OCO2 (stereo not given),inconclusive: 73%
16,CCOc1ccc(-c2nc(CN3CCCC(C(=O)N4CCOCC4)C3)c(C)o2)cc1 (stereo not given),inconclusive: 37.3%
17,CN(C(=O)c1ccc(Oc2ccc([N+](=O)[O-])cc2)cc1)C1CCCCC1,inconclusive: 36.3%
18,CC(=O)Nc1cccc(Nc2nc(-c3cccs3)nc3ccccc23)c1,inconclusive: 68.8%
19,Cc1ccccc1/C=N/NC(=O)c1ccc(-n2cnnn2)cc1,inconclusive: 31.4%
20,O=C(COC(=O)C1CCCN1C(=O)c1cccs1)c1ccccc1 (stereo not given),inactive: -0.67%
21,Cc1nnsc1C(=O)NC1CCCc2c1cnn2-c1ccc(C(C)(C)C)cc1 (stereo not given),active: 85.2%
22,COc1cc(/C=C2\S/C(=N/S(=O)(=O)c3ccc(C)cc3)NC2=O)c([N+](=O)[O-])cc1OC,inactive: -0.865%
23,COCCNC(=S)N1CCN(c2nc(-c3ccc(Cl)cc3)cs2)CC1,inactive: 18.4%

row,SMILES,activation
1,Cc1ccc(NC(=S)NCc2cccn2C)cc1,inconclusive: 40.7%
2,S=C(NCc1ccc(Cl)cc1Cl)Nc1ccccc1,inconclusive: 55.8%
3,CCOC(=O)c1cnc2ccc(C)cc2c1Sc1ccccc1C(=O)OC,inconclusive: 31.2%
4,CC1=C(C(=O)OC(C)C)C(c2cccnc2)C2=C(CC(C)(C)CC2=O)N1 (stereo not given),inactive: 16.5%
5,CCc1c(C)nc2ncnn2c1NCCc1ccccc1,inactive: 11%
6,O=C(NCCCc1ccccc1)c1cc([N+](=O)[O-])ccc1Cl,inconclusive: 54.5%
7,COc1cc(C(=O)Nc2cc(-c3ccccc3)[nH]n2)cc(OC)c1OC,inactive: 2.75%
8,O=C(CCN1C(=O)/C(=C/c2cccs2)SC1=S)NC1=NCCS1,inactive: -4.78%
9,COc1ccc(-c2ccc(N(C)C)cc2)cc1[C@H]1[C@@H]2C=CCC[C@@]2(C)C(=O)N1Cc1ccccc1,inconclusive: 54.6%
10,O=C(Nc1ccccc1)N1CCN(c2nc(-c3ccccc3)ns2)CC1,inconclusive: 64.9%
11,O=C(CNC(=O)c1ccc(Br)cc1)c1ccccc1,inconclusive: 40.6%
12,Clc1ccc(/C=C/c2nc3ccccc3[nH]2)c(Cl)c1,inconclusive: 64.3%
13,O=c1c2sccc2[nH]c(=S)n1Cc1ccccc1,inconclusive: 31.5%
14,CCOc1ccc(OCC)c(NC(=O)CNS(=O)(=O)c2cccs2)c1,inconclusive: 40.2%
15,COc1cc(/C=C2/SC(=S)N(CC3CCCO3)C2=O)ccc1O (stereo not given),inactive: 15.8%
16,O=C(COC(=O)c1ccc(S(=O)(=O)C(F)F)cc1)NC(=O)NC1CCCCC1,inactive: -0.97%
17,c1ccc(-c2cnc(-c3cccnc3)o2)cc1,inactive: 10.6%
18,CCCOC(=O)c1ccc(NC(=O)c2ccccc2[N+](=O)[O-])cc1,inactive: 0.493%
19,CCCOc1ccc(C(=O)NC(=S)NCc2cccnc2)cc1,inactive: 6.36%
20,O=[N+]([O-])c1ccccc1/C=C/C=N/n1c(-c2ccccc2)n[nH]c1=S,inactive: 3.33%
21,CCOP(=O)(OCC)C(Nc1cccc(C(F)(F)F)c1)c1ccc(F)cc1 (stereo not given),inconclusive: 30.9%
22,Cc1ccc(S(=O)(=O)/N=C(\CCl)N2CCOCC2)cc1,inactive: -0.117%
23,CN/N=C(\Cc1nc2ccccc2[nH]1)c1ccc([N+](=O)[O-])cc1,inactive: 3.85%

row,SMILES,activation
1,CCCCOc1cccc(-c2cc(C(=O)NNC(=S)NCC)c3ccccc3n2)c1,inconclusive: 49.9%
2,CCC(C)NC(=O)Nc1ccc(Br)cc1 (stereo not given),inconclusive: 36.8%
3,CCOC(=O)C1=C(C)OC(N)=C(C#N)C1c1cc(C)sc1C (stereo not given),inconclusive: 30.9%
4,Cc1nc(Nc2ccccc2)sc1-c1ccccc1,inactive: 9.81%
5,CCOC(=O)C(C)n1nc(-c2ccccc2)c2ccccc2c1=O (stereo not given),inconclusive: 50.6%
6,CCCCCC(C)NC(=O)c1cc(S(=O)(=O)N2CCCCC2)ccc1N1CCOCC1 (stereo not given),inconclusive: 55.1%
7,COc1ccc(CCNc2nc(-c3ccc(O)cc3)cs2)cc1OC,inactive: -0.229%
8,Cc1ccc(NC(=O)c2ccc3c(c2)nnn3C)cc1,inconclusive: 60.4%
9,C/C(=N\NC(=O)c1cccc(S(=O)(=O)N2CCOCC2)c1)c1ccc(O)cc1,inconclusive: 39.6%
10,Cc1ccc(C)c(S(=O)(=O)N2CCCCC2CCNC(=O)C(=O)NCc2ccncc2)c1 (stereo not given),inconclusive: 32.1%
11,CC(C)(C)NC(=O)C(OC(=O)c1ccco1)c1ccccc1F (stereo not given),inactive: 0.825%
12,Cc1ccccc1-c1nc(SCc2cccnc2)c2c(=O)n(C)c(=O)n(C)c2n1,inactive: 0.149%
13,CN1CCN(Cc2nc3ccccc3c(=O)n2Cc2nc(-c3ccc4ccccc4c3)cs2)CC1,inactive: 1.28%
14,O=C(CCCCCN1C(=O)c2ccccc2C1=O)Nc1cccc(O)c1,inconclusive: 52.6%
15,CCN(CC)c1ccc(/C=C(/C#N)c2nc3ccc(C)cc3[nH]2)c(OC(C)C)c1,active: 85.4%
16,O=c1c2ccccc2c(-c2ccccc2)nn1-c1cc(Cl)ccc1[N+](=O)[O-],inactive: 21.2%
17,Cc1ccc(C(=O)C(OC(=O)c2cnccn2)c2ccccc2)cc1 (stereo not given),inconclusive: 43.1%
18,O=C(CCNS(=O)(=O)c1ccccc1F)N1CCN(C(c2ccccc2)c2ccccc2)CC1,inconclusive: 38%
19,Cc1ccc(NC(=S)Nc2ccc(Br)cc2)cc1,inactive: 4.05%
20,CCOc1ccc(CN2CCCC(CNC(=O)c3ccc(F)cc3)C2)cc1CO (stereo not given),inactive: -0.131%
21,O=C(NCc1cccs1)C1CCCN(c2nc3ccccc3o2)C1 (stereo not given),inconclusive: 41.5%
22,CCCC(C)C(=O)Nc1ncc(S(=O)(=O)c2ccc([N+](=O)[O-])cc2)s1 (stereo not given),inactive: -0.279%
23,CCCCC(=O)OCc1cn(-c2ccc(Cl)cc2)nn1,inconclusive: 35.6%

row,SMILES,activation
1,COc1ccc(C(=O)Oc2ccc(C(=S)N3CCOCC3)cc2)cc1,inactive: 2.73%
2,O=C(Cn1cnc2c(nnn2Cc2ccc(Cl)cc2)c1=O)c1ccccc1,inconclusive: 34.9%
3,COc1ccc(-c2cc(=O)c3ccccc3s2)cc1,inconclusive: 35.3%
4,CCOC(=O)c1cnc2c(OC)cccc2c1N1CC(C)CC(C)C1 (stereo not given),inconclusive: 52.6%
5,COc1cc(/C=N/N2C(=O)CSC2=S)cc(Br)c1O,inactive: 3.85%
6,O=C(CCC1CCCCC1)Nc1ccccc1-c1ccccc1,inconclusive: 41.9%
7,CCOC(=O)Cc1csc(NC(=O)c2ccc(Br)o2)n1,inconclusive: 30%
8,Cc1ccc(C(=O)CC2(O)C(=O)N(Cc3ccc4c(c3)OCO4)c3ccccc32)cc1 (stereo not given),inactive: 1.78%
9,O=C(NC1CCCC1)c1ccc2c(c1)N(Cc1ccc(F)cc1)CCS2,inconclusive: 62.6%
10,COc1ccc(C(=O)NC(=S)NC2CCCCC2)cc1,inconclusive: 48.1%
11,CCN(CC)c1ccc2c(Cl)cc(=O)oc2c1,inconclusive: 50.6%
12,O=C(Nc1nccs1)c1ccc(-c2ccccc2Cl)o1,inconclusive: 56.6%
13,COc1cccc(NC(=O)CN2C(=O)CSc3ccc(S(=O)(=O)N4CCC(C)CC4)cc32)c1,inconclusive: 78.2%
14,COc1cc(NC(=O)c2ccccc2)c(OC)cc1NC(=O)Cc1ccccc1,inconclusive: 32.9%
15,COc1ccc(C23CC4CC(CC(C4)C2)C3)cc1C(=O)NCCN(C)C,inactive: 6.61%
16,CC(C)OC(=O)c1nnc(-c2ccccc2)nc1OC(C)C,inconclusive: 33.4%
17,Cc1cc(C)c2c(n1)nn1c(N3CCN(Cc4ccccc4)CC3)cc(C)nc21,inconclusive: 51.6%
18,Cc1ccc(S(=O)(=O)N(CC(=O)NCCC2=CCCCC2)Cc2ccccc2F)cc1,inconclusive: 55%
19,Cc1cc(Br)ccc1SCC(=O)OCC(=O)NCc1ccco1,inconclusive: 40.1%
20,COc1ccc(C(=O)O)cc1S(=O)(=O)NCc1ccccn1,inactive: -1.57%
21,COC(=O)c1cccc(NC(=O)CSCc2ccccc2)c1,inconclusive: 32.7%
